Measurements reported in PubChem BioAssay AID1259254 (NCATS, 2017).
Assay: 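Genome-wide screen for genes that prevent DNA re-replication in cancer cells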 (primary screen). System: human HCT116 colorectal cancer cells. Reagents: single siRNA against human genes. Time to read-out: 3 days. Detection: 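Nuclei stained with Hoechst and imaged; cell-cycle phase assigned by DNA content; G2 share scaled per plate, non-targeting siRNA 0%, GMNN siRNA 100%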. Direction: G2 robust z-score: higher = more G2 cells, more excess DNA replication. Call rule: 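An siRNA counts as active if its G2 robust z-score lies at least 5 MADs above the screen median; here such calls match roughly 38% of GMNN control or more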.
In all, the deposit lists about 59,000 reagents; shown is a random part of them. About 1,550 of them (2.6%) were called active. 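G2 share is only a proxy for re-replication; each gene was hit by three separate siRNAs, and active genes were retested.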 Unmarked entries are inactive. Reagents against one gene are numbered here. Further read-outs or replicates are left out here. Reagent sequences are not shown. The record does not give: the amount of reagent.

What is on record for F13A1 (coagulation factor XIII A chain) #1?
G2 robust z-score: 0.617

How did the screen score F13A1 (coagulation factor XIII A chain) #2?
G2 robust z-score: 1.25

How did the screen score F13A1 (coagulation factor XIII A chain) #3?
G2 robust z-score: 1.36

What is on record for STT3A (STT3 oligosaccharyltransferase complex catalytic subunit A) #1?
G2 robust z-score: 0.621

With STT3A (STT3 oligosaccharyltransferase complex catalytic subunit A) #2, how do the results read?
G2 robust z-score: -0.57

What did the screen give for STT3A (STT3 oligosaccharyltransferase complex catalytic subunit A) #3?
G2 robust z-score: 0.133

What did the screen give for STRAP (serine/threonine kinase receptor associated protein) #1?
G2 robust z-score: -0.937

With STRAP (serine/threonine kinase receptor associated protein) #2, what was measured?
G2 robust z-score: 0.279

With STRAP (serine/threonine kinase receptor associated protein) #3, what was measured?
G2 robust z-score: 0.474

For NEUROD1 (neuronal differentiation 1) #1, what was measured?
G2 robust z-score: 0.728

What did the screen give for NEUROD1 (neuronal differentiation 1) #2?
G2 robust z-score: -0.303

With NEUROD1 (neuronal differentiation 1) #3, what does the deposit list?
G2 robust z-score: -1.12

2 entries from above, reformatted.
{"gene knocked down": "F13A1 (coagulation factor XIII A chain)", "reagent": 3, "G2 robust z-score": 1.36}
{"gene knocked down": "STT3A (STT3 oligosaccharyltransferase complex catalytic subunit A)", "reagent": 1, "G2 robust z-score": 0.621}
